Literature values in US7326384B2, “Method and apparatus for detecting physicochemical changes emitted by biological sample” (Matsushita Electric Industrial Co., Ltd., priority 2001, dated 2008).
For at least one compound, name, drawing or mass did not settle the structure.

Tested on: Ca ion channel of smooth muscle cells
Details: cell stimulated by 10 μM norepinephrine; nifedipine 0.03 to 30 μM; intracellular recording; cited from earlier work

COC(=O)C1=C(C)NC(C)=C(C(=O)OC)C1c1ccccc1[N+](=O)[O-] [nifedipine]
activity of the Ca ion channel of smooth muscle cells: inhibited by nifedipine in a concentration-dependent manner
